In publication PMC10248797:
Changes are numbered by the printed parent chain. Results are given in words; binding and its absence hold for the method and conditions named. Some entries that bind do so weakly or less than the wild type. For some assays here: Tags and fused reporters may be left off the sequences shown.

Chains of the proteins cited; added tags and fusions are not shown. Lines headed by an entry give the natural chain unless they say otherwise; changes in a name come on top.
UniProt Q14204: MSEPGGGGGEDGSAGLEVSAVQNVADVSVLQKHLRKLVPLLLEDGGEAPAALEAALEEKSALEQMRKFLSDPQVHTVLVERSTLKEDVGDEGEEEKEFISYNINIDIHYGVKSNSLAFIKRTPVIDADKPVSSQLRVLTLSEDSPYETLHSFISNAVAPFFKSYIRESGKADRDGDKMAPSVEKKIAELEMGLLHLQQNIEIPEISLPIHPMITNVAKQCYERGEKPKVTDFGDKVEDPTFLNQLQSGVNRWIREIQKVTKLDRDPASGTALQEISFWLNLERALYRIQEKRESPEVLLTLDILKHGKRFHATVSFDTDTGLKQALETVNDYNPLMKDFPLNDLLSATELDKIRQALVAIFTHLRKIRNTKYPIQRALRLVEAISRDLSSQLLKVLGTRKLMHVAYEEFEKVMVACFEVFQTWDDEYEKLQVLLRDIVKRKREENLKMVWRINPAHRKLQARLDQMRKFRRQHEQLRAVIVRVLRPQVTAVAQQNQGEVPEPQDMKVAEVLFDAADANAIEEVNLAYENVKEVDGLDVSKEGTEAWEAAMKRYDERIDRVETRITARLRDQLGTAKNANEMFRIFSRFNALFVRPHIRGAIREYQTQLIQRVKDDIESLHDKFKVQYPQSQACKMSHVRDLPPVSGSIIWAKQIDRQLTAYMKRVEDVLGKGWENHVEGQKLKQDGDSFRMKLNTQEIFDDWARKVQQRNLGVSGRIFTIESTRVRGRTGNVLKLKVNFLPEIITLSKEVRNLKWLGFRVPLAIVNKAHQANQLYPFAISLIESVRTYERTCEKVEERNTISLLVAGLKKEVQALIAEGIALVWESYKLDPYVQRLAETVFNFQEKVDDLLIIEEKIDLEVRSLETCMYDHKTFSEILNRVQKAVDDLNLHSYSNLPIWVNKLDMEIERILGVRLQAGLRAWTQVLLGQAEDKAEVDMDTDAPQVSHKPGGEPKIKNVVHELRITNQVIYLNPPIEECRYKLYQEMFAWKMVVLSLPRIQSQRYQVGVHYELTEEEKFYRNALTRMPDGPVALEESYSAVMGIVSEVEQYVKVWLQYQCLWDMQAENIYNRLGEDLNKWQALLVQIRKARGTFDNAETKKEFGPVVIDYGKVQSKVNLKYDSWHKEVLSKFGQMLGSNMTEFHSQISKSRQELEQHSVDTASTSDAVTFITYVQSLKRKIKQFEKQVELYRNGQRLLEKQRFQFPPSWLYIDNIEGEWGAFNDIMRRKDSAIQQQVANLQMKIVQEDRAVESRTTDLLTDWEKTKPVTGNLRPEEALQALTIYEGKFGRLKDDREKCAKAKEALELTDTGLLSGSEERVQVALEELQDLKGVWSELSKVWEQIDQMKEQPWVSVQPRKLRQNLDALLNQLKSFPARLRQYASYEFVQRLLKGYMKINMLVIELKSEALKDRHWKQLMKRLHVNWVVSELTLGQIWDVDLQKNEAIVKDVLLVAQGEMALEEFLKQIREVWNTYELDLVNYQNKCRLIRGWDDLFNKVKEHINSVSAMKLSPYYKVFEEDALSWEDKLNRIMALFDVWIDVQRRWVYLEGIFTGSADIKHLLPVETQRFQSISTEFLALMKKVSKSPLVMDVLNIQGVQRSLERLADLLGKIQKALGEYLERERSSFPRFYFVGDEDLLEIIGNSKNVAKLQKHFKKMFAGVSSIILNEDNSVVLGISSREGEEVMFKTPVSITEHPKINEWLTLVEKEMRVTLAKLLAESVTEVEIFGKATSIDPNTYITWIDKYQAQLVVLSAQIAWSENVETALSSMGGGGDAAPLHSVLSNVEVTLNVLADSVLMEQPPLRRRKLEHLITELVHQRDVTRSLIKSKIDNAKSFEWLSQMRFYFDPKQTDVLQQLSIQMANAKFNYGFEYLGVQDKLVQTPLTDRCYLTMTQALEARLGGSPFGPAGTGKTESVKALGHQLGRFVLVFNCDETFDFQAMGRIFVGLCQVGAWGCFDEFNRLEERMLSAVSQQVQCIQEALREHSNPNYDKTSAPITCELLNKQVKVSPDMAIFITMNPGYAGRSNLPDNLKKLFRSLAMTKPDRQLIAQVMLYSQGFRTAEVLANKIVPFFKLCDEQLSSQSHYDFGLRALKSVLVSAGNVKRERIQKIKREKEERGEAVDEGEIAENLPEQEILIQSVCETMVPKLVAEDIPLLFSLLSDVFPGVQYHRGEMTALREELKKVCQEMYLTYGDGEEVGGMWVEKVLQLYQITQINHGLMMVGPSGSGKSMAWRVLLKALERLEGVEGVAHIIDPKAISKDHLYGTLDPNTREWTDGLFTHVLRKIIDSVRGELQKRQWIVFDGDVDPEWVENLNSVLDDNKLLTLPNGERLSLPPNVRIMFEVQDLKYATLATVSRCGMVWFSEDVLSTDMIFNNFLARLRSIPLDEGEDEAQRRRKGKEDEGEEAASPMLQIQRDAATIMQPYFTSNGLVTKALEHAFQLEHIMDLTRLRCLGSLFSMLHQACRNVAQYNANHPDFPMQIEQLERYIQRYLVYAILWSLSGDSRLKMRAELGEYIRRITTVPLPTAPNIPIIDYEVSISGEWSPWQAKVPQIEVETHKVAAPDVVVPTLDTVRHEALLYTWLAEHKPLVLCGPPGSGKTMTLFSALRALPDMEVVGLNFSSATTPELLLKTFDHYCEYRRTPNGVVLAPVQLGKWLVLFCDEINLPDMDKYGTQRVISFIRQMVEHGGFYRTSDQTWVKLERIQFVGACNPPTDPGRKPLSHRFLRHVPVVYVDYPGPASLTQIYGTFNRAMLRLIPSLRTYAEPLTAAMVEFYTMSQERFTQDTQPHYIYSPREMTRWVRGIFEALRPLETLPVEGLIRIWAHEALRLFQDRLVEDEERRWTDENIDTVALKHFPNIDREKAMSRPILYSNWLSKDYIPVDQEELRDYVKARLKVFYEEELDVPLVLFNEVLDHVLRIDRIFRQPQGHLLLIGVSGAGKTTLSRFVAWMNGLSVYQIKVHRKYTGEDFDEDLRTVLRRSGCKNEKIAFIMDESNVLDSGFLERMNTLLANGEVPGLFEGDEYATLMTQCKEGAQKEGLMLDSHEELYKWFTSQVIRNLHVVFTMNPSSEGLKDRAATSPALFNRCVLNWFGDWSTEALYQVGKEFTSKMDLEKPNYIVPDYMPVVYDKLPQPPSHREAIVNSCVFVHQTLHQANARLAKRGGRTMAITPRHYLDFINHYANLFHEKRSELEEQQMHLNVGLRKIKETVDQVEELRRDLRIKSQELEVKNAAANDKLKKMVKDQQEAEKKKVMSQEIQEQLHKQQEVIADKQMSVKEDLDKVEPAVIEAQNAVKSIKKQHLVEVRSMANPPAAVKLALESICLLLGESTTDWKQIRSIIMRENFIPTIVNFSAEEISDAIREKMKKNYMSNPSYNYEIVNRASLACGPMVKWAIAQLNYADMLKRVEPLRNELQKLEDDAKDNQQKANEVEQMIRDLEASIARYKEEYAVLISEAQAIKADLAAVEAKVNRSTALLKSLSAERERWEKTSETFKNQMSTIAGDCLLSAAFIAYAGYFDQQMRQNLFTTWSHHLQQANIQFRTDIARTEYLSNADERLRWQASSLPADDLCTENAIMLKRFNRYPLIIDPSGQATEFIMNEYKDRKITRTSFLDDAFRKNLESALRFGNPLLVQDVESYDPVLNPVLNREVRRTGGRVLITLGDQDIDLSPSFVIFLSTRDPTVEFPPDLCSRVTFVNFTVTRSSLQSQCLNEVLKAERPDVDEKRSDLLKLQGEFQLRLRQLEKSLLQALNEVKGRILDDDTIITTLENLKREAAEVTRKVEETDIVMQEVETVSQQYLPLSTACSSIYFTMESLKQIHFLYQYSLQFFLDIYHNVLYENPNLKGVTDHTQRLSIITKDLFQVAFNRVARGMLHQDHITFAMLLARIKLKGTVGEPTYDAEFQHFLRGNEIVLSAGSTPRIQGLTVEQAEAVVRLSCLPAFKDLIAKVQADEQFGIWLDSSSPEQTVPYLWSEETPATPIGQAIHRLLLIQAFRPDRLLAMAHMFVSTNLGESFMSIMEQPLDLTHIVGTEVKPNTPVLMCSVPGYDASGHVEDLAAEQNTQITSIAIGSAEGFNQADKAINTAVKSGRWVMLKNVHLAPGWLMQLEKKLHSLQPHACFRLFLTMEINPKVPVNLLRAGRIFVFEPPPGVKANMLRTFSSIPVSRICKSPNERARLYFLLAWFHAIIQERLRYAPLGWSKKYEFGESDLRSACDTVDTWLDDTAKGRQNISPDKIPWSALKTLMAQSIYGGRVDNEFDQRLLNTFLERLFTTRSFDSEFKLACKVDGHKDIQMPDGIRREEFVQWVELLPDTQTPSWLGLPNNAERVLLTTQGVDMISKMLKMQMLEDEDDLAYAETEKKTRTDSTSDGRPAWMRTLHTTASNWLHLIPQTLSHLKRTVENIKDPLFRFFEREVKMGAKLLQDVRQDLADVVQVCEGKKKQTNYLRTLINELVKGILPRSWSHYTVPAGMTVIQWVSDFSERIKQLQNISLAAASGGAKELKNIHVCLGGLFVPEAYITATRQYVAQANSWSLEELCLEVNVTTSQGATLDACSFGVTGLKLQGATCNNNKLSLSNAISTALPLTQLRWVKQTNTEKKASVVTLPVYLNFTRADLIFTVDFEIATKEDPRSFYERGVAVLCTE
UniProt Q13409: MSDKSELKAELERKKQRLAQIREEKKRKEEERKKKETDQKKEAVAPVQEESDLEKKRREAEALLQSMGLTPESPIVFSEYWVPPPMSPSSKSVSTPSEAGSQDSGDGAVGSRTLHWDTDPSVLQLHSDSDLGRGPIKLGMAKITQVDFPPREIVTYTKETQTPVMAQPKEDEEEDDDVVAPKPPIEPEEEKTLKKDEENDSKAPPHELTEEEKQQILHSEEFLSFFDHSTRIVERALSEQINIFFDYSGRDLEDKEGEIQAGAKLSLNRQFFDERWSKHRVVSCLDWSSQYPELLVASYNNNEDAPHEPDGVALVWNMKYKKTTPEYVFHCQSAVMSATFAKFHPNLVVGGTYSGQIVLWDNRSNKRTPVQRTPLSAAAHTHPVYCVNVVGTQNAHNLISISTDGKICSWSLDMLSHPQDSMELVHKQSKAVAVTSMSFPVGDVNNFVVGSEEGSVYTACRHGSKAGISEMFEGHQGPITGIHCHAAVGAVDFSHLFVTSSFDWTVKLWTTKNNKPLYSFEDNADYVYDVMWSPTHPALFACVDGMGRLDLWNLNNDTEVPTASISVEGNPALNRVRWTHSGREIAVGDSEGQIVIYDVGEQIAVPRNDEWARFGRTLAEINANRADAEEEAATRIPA
UniProt O43237: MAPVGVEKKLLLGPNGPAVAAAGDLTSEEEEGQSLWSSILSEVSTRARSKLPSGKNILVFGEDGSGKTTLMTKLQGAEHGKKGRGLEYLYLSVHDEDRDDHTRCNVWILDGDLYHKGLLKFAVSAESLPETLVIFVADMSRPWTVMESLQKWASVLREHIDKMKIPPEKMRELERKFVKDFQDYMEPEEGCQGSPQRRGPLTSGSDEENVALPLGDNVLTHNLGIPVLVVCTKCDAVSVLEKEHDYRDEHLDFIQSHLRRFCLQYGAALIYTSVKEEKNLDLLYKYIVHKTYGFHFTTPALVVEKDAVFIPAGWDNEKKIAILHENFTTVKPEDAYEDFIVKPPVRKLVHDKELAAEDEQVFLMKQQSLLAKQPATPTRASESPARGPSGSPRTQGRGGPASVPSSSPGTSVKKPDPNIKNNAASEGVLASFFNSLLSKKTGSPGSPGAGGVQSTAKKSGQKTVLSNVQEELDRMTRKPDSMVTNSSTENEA
UniProt P63172: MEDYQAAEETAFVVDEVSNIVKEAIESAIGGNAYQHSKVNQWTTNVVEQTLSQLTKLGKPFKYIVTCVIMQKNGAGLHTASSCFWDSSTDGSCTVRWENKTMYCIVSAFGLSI
UniProt Q9NP97: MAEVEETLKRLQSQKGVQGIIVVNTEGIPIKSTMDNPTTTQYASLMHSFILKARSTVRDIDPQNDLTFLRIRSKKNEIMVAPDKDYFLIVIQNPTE
UniProt P63167: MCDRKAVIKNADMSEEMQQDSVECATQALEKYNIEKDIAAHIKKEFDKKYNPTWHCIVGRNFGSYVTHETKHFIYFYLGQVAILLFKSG

Key:
[1] = molecular target: T1, tagless FL-Ndel1 (i.e., no HaloTag) (UniProt Q9GZM8); test: pull-down; 50 nM Halo-Lis1 on HaloTag beads; 5 nM dynein with 100 nM WT Ndel1 without HaloTag; depletion of dynein from solution; both purified
T1 sequence: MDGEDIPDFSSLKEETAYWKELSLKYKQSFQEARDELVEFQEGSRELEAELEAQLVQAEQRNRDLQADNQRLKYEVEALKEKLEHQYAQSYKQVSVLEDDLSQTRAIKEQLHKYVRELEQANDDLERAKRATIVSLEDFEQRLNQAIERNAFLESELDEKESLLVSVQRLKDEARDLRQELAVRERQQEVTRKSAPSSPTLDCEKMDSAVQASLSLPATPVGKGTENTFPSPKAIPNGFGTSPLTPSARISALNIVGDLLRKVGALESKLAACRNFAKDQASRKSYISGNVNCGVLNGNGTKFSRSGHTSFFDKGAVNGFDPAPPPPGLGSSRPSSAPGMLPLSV

[2] = molecular target: T2, Halo-tagged full-length Ndel1 with C-terminal 6X-His tag (UniProt Q9GZM8); test: pull-down; 30 nM Halo-Ndel1 construct on HaloTag beads; 5 nM dynein in the absence and presence of 30 nM Lis1; depletion of dynein from solution; both purified
T2 sequence: T1 sequence

[3] = molecular target: T3, Halo-tagged full-length Ndel1 with the four CDK1 sites mutated to aspartic acid (S198D; T219D; S231D; S242D), with C-terminal 6X-His tag (UniProt Q9GZM8); test: as above
T3 sequence: T1 sequence with S198D, T219D, S231D, S242D

[4] = molecular target: T4, Halo-tagged Ndel1(1-192), N-terminal coiled coil only, with C-terminal 6X-His tag (UniProt Q9GZM8); test: as above
T4 sequence: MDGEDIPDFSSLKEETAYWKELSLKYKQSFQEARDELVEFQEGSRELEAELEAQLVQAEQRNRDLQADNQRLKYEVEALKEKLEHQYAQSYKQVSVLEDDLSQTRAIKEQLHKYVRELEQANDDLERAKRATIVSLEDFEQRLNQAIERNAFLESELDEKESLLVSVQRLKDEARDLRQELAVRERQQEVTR

[5] = molecular target: SNAP-tagged, recombinant full-length human cytoplasmic dynein-1 with all associated accessory chains (human) (UniProt Q14204+Q13409+O43237+P63172+Q9NP97+P63167); test: pull-down; 90 nM FL-Ndel1 on Ni-NTA magnetic beads via the C-terminal 6X-His tag; 5 nM dynein with 10 nM dynactin and 150 nM NINL; depletion of dynein from solution; both purified

Substance	binding [1]	binding [2]	binding [3]	binding [4]	binding [5]
SNAP-tagged, recombinant full-length human cytoplasmic dynein-1 with all associated accessory chains (from UniProt Q14204 1-4646; Q13409-3 1-612; O43237 1-492; P63172 1-113; Q9NP97 1-96; P63167 1-89) (complex)	binds	binds	binds	binds	
Halo-NINL(1-702) (from UniProt Q9Y2I6 1-702) (domain or fragment)					binds
